Measurements reported in PubChem BioAssay AID1671195 (Yale University, 2021).
This is an unselected part of about 22,000 deposited reagents. Of all reagents, about 1,510 (6.9%) were called active. 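Active includes knockdowns raising or lowering LDL uptake; positive z-scores mean more uptake, negative mean less.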 Reagent sequences are not shown.

Purpose: 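Knockdowns that increase or decrease uptake of fluorescent LDL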 (primary screen)
Cells: human Huh7 hepatoma cells
Knock-down reagent: siRNA pool against human genes, 18 nM
Duration: about 2 to 2.5 days of knockdown, then 8 h LDL uptake
Challenge: DiI-labelled LDL at 30 µg/ml for 8 h, in lipoprotein-deficient serum medium
Measured: 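Per-cell DiI-LDL intensity by automated imaging; well means scaled to the plate median and given as a robust z-score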
Reading the numbers: robust z-score: higher = more LDL uptake after knockdown
Active means: 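Active when two or more replicates show a robust z-score above 2 or below -2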

gene | robust z-score, replicate 1 | robust z-score, replicate 2 | robust z-score, replicate 3 | call
TMEM98 | 1.34 | 1.73 | 1.49 | inactive
APOC2 | -1.54 | -1.73 | -1.51 | inactive
TTC3P1 | -0.735 | -0.634 | -0.755 | inactive
HMOX1 | 0.617 | 0.675 | 0.366 | inactive
MITD1 | 1.28 | -0.379 | -0.13 | inactive
DNAI3 | 0.508 | 0.746 | 0.0172 | inactive
DEK | -1.08 | -1.85 | -0.446 | inactive
ZNF366 | 0.933 | 0.474 | 0.489 | inactive
RAC3 | 0.0573 | -0.111 | -0.845 | inactive
STAU1 | 1.78 | 2.23 | 2.19 | active
CYP2A13 | 1.35 | 0.707 | 1.15 | inactive
ZNF596 | -1.37 | -1.36 | -0.737 | inactive
AP2S1 | -1.44 | -1.06 | -1.64 | inactive
LRRC2 | -0.383 | -0.635 | 0.343 | inactive
LOC441393 (retired record) | 0.338 | -0.121 | -0.0899 | inactive
PPP3CC | -0.146 | -0.659 | 0.18 | inactive
TMEM219 | 0.796 | 0.665 | 0.318 | inactive
RSPO1 | -0.0881 | -0.18 | 0.0424 | inactive
PDE6H | 0.103 | -0.0855 | -0.357 | inactive
BCAS4 | 0.054 | -0.795 | -1.3 | inactive
ZNF57 | -0.626 | -0.615 | 0.297 | inactive
PIWIL1 | 0.205 | -0.482 | 0.607 | inactive
PARP2 | 0.299 | 0.125 | 1.04 | inactive
LOC343153 (retired record) | -0.105 | 0.166 | 0.0347 | inactive
U2AF1L4 | 0.178 | -0.0917 | -0.0565 | inactive
CRELD2 | -0.265 | -0.582 | -0.236 | inactive
CTDSP1 | 0.848 | 1.06 | 1.2 | inactive
GPHN | 0.512 | -0.745 | 1.1 | inactive
CLIC1 | -1.44 | -1.98 | -0.88 | inactive
ZNF668 | -0.00259 | 0.526 | -0.0251 | inactive
EIF4EBP1 | -1.36 | -1.45 | -1.13 | inactive
CFAP43 | -0.272 | -0.741 | -0.739 | inactive
SCN3A | 0.281 | -0.131 | 1.2 | inactive
MS4A10 | -1.17 | -0.567 | -1.01 | inactive
CCDC85B | 3.15 | 3.48 | 3.19 | active
PRSS2 | 0.889 | 1.27 | 0.568 | inactive
LHX8 | -0.596 | -0.851 | -0.925 | inactive
TMEM26 | -1.16 | -0.984 | -1.07 | inactive
MAP2K1 | 1.25 | -0.154 | -0.614 | inactive
APLP2 | -1.11 | -0.253 | -0.799 | inactive
CHMP4A | 0.439 | -0.788 | -0.476 | inactive
IRF3 | 0.641 | 0.693 | 0.723 | inactive
PRPH2 | -0.00362 | 2.27 | 1.32 | inactive
MAP3K8 | -0.733 | -0.837 | -0.3 | inactive
IL1RAPL1 | 0.345 | 0.262 | 0.523 | inactive
PLXNC1 | 1.53 | 1.18 | 0.818 | inactive
IGSF11 | 1.37 | 1.09 | 2.2 | inactive
CAMSAP2 | -0.129 | -1.61 | 0.904 | inactive
CPNE8 | 1.75 | 1.53 | 0.93 | inactive
LOC392164 (retired record) | 0.563 | -0.251 | -0.524 | inactive
LILRB2 | -2.5 | -2.24 | -2.83 | active
CCDC190 | 1.14 | 1.06 | 0.858 | inactive
ZSCAN4 | 1.45 | 0.904 | 2.5 | inactive
LOC440123 (retired record) | 3.7 | 2.74 | 2.57 | active
RAB3IL1 | -0.935 | -1.85 | -0.539 | inactive
LOC401119 (retired record) | -0.387 | -0.559 | -0.689 | inactive
LIPH | -0.0142 | 0.609 | 0.0352 | inactive
ATP9B | 1.11 | 0.325 | 1.21 | inactive
NUTF2 | 0.756 | -0.574 | -0.319 | inactive
DRC3 | 1.47 | 0.103 | 0.893 | inactive
WASHC4 | -0.365 | 0.811 | -0.934 | inactive
KMT5A | -1.2 | -1.62 | -1.44 | inactive
MGAT2 | 2.14 | 1.23 | 2.11 | active
CHL1 | 0.509 | -0.65 | -0.826 | inactive
DNAJC1 | 1.09 | 0.756 | 0.84 | inactive
TCP10L3 | -0.744 | -0.854 | 0.242 | inactive
HOGA1 | -0.248 | 0.702 | 0.492 | inactive
REXO4 | 1.62 | 1.76 | 1.48 | inactive

In a second layout: results already given.
{"gene":"PLXNC1","robust z-score, replicate 1":1.53,"robust z-score, replicate 2":1.18,"robust z-score, replicate 3":0.818,"call":"inactive"}
{"gene":"IGSF11","robust z-score, replicate 1":1.37,"robust z-score, replicate 2":1.09,"robust z-score, replicate 3":2.2,"call":"inactive"}
{"gene":"CAMSAP2","robust z-score, replicate 1":-0.129,"robust z-score, replicate 2":-1.61,"robust z-score, replicate 3":0.904,"call":"inactive"}
{"gene":"CPNE8","robust z-score, replicate 1":1.75,"robust z-score, replicate 2":1.53,"robust z-score, replicate 3":0.93,"call":"inactive"}
{"gene":"LOC392164 (retired record)","robust z-score, replicate 1":0.563,"robust z-score, replicate 2":-0.251,"robust z-score, replicate 3":-0.524,"call":"inactive"}
{"gene":"LILRB2","robust z-score, replicate 1":-2.5,"robust z-score, replicate 2":-2.24,"robust z-score, replicate 3":-2.83,"call":"active"}
{"gene":"CCDC190","robust z-score, replicate 1":1.14,"robust z-score, replicate 2":1.06,"robust z-score, replicate 3":0.858,"call":"inactive"}
{"gene":"ZSCAN4","robust z-score, replicate 1":1.45,"robust z-score, replicate 2":0.904,"robust z-score, replicate 3":2.5,"call":"inactive"}
